No constants are given. Whether binding was seen depends on the method and setting. Some entries that bind do so weakly or less than the wild type.
Columns and labels:
[1] = target: Mouse PILRA extracellular domain fused to human CD3 zeta chain transmembrane and intracellular domains, on 293-PILRA stable cells (mouse; human) (UniProt P20963); experiment: cell-based competitive ELISA: 293-PILRA stable cells, antibody titrated together with a fixed amount of mouse CD99-Fc, bound ligand-Fc detected with anti-human IgG-Fc-HRP
[2] = target: Mouse PILRA extracellular domain fused to human CD3 zeta chain transmembrane and intracellular domains, on 293-PILRA stable cells (mouse; human) (UniProt P20963); experiment: cell-based competitive ELISA: 293-PILRA stable cells, antibody titrated together with a fixed amount of mouse C12orf53-Fc, bound ligand-Fc detected with anti-human IgG-Fc-HRP

Binder	binding [1]	binding [2]
Anti-mouse PILRA antibody 12H1.8 (antibody, mouse IgG2a, kappa, V domains shown) VH: QVQLQQSGAELVGPGTSVKISCQASGYTFTNYWIGWAKQRPGHGLEWIGDIYPGGGYTNYNKKFKGKATLTADKSSSTAYMQFSSLTSEDSAIYYCSRSRGHGSNFYWYFDVWGTGTTVTVSS VL: DIVMTQSPKFMSTSVGDRVNITCRASQDVNTAVAWFQQKPGRSPKLLIYSASYRYTGPDHFTGSGSGTDFTFTISSVQAEDLAVYYCQQHYTTPLTFGAGTKLEIKR	binds	
Anti-mouse PILRA antibody 12C6.9 (antibody, mouse IgG2a, kappa, V domains shown) VH: QIQLVQSGPELKKPGETVKISCKASGYTFTTYGMSWMKQAPGKGLKWMGWINTYSGVPTYADDFKGRFAFSLETSASTAYLQISNLKDEDTARYFCARRDYGSSQWYFDVWSTGTTVTVSS VL: DIVMTQSPKFMSISVGDRVSVTCKASQNVGTKVAWYQQKPGQSPKELIYSASYRFSGVPDRFTGSGSGTDFTLTISSVQSEDLAEYFCQQYNTYPLTFGAGTKLEIKR	binds	binds

— patent US20190211098A1
